In the assay the target is MalE-DctA helix 8b-T25 fusion (E. coli). As to the kind of experiment: two-hybrid; bacterial two-hybrid (BTH): T18 and T25 fusions co-transformed in E. coli BTH101 (cyaA-), grown overnight in LB at 30 °C; beta-galactosidase activity; background below 150 Miller units; the reporter strain expresses chromosomal DctA and DcuS.

Binding data for one molecule are collected here from paper PMC5703999, “The E. coli dicarboxylic acid transporters DauA act as a signal transducer by interacting with the DctA uptake system” (Scientific Reports, 2017).

Results are given in words; binding and its absence hold for the method and conditions named. Where a sequence is shown, tags or fusion partners need not be part of it.

B1: DauA fused to the T18 or T25 domain of adenylate cyclase (protein, UniProt P0AFR2 1-559)
chain: MNKIFSSHVMPFRALIDACWKEKYTAARFTRDLIAGITVGIIAIPLAMALAIGSGVAPQYGLYTAAVAGIVIALTGGSRFSVSGPTAAFVVILYPVSQQFGLAGLLVATLLSGIFLILMGLARFGRLIEYIPVSVTLGFTSGIGITIGTMQIKDFLGLQMAHVPEHYLQKVGALFMALPTINVGDAAIGIVTLGILVFWPRLGIRLPGHLPALLAGCAVMGIVNLLGGHVATIGSQFHYVLADGSQGNGIPQLLPQLVLPWDLPNSEFTLTWDSIRTLLPAAFSMAMLGAIESLLCAVVLDGMTGTKHKANSELVGQGLGNIIAPFFGGITATAAIARSAANVRAGATSPISAVIHSILVILALLVLAPLLSWLPLSAMAALLLMVAWNMSEAHKVVDLLRHAPKDDIIVMLLCMSLTVLFDMVIAISVGIVLASLLFMRRIARMTRLAPVVVDVPDDVLVLRVIGPLFFAAAEGLFTDLESRLEGKRIVILKWDAVPVLDAGGLDAFQRFVKRLPEGCELRVCNVEFQPLRTMARAGIQPIPGRLAFFPNRRAAMADL
In the case of B1, the binding result is recorded as “no binding”.
